# Results are given in words; binding and its absence hold for the method and conditions named. For part of these data: A result given as binding can be weak or reduced; the word gives no strength.
# Legend:
# Assay in all cases: two-hybrid; yeast strain AH109, pGBKT7 and pGADT7 vectors; growth on SD/-Ade-His-Leu-Trp at 30°C and colour development with X-α-Gal
# [1] = molecular target: PsoSGT1, yeast two-hybrid fusion (Prunus sogdiana)
# [2] = molecular target: PsoHSP83, yeast two-hybrid fusion (Prunus sogdiana)
# [3] = molecular target: PsoRPM2 (P. sogdiana RESIST PATHOGEN M. incognita), yeast two-hybrid fusion (Prunus sogdiana)
# [4] = molecular target: PsoHSP90-2, yeast two-hybrid fusion (Prunus sogdiana)
# [5] = molecular target: PsoHSP90-1, yeast two-hybrid fusion (Prunus sogdiana)
# [6] = molecular target: PsoRAR1, yeast two-hybrid fusion (Prunus sogdiana)
Substance,binding [1],binding [3],binding [5],further results
"PsoHSP83, yeast two-hybrid fusion (from UniProt A0A290YK62)",no binding,–,–,–
"PsoHSP90-1, yeast two-hybrid fusion (from UniProt A0A290YK21)",binds,binds,–,binding [2]: no binding; binding [4]: no binding
"PsoRAR1, yeast two-hybrid fusion (from UniProt A0A290YK86)",binds,–,binds,–
"PsoRPM2 (P. sogdiana RESIST PATHOGEN M. incognita), yeast two-hybrid fusion (from UniProt A0A167NLE0)",binds,–,binds,binding [6]: no binding

# Further lines, with some results ahead:
binding [1],binding [3],binding [5],Substance,further results
no binding,–,–,"PsoHSP90-2, yeast two-hybrid fusion (from UniProt A0A290YK42)",–
–,binds,–,"PsoSGT1, yeast two-hybrid fusion (from UniProt A0A290YK60)",–
